Data taken from the supplement of paper PMC9744312.
Values joined by “and” are separate entries in the source; they are usually repeats but may differ in a detail not shown here. Equal entries are not always repeated. Structures can show the parent of a compound that is named as a salt. The list shows a part of the results. Single values of this set are uncertain.

Test system: Peyronie's disease tunica albuginea primary fibroblasts
Assay: cell viability (DRAQ5 nuclear stain) relative to TGF-beta1-only control; higher = more viable cells
Conditions: 10 µM; TGF-beta1 10 ng/mL; 72 h

Compound | cell viability
Cc1ccc(NC(=O)C2(c3ccc4c(c3)OC(F)(F)O4)CC2)nc1-c1cccc(C(=O)O)c1 [VX-809 (Lumacaftor)] | 35.4%
CNC(=O)c1ccc(Nc2ncc(C(F)(F)F)c(NCc3nccnc3N(C)S(C)(=O)=O)n2)cc1 | 82.6%
CC(C)OC(=O)C(C)(C)Oc1ccc(C(=O)c2ccc(Cl)cc2)cc1 [Fenofibrate] | 88%
OCCOc1ccc(/C(=C(/CCCl)c2ccccc2)c2ccccc2)cc1 [Ospemifene] | 82.8%
NC(=O)CC[C@H](N)C(=O)O [L-Glutamine] | 99.1%
O=S(=O)(O)Oc1ccc(C(c2ccc(OS(=O)(=O)O)cc2)c2ccccn2)cc1 [Sodium Picosulfate] | 95.9%
Cc1cc2c(s1)Nc1ccccc1N=C2N1CCN(C)CC1 [Olanzapine] | 88.3%
CCCCN(CCCC)CC(O)c1cc(Cl)cc2c1-c1ccc(Cl)cc1/C2=C/c1ccc(Cl)cc1 (centres undefined) [Lumefantrine] | 94.3%
Cc1cn(-c2cc(NC(=O)c3ccc(C)c(Nc4nccc(-c5cccnc5)n4)c3)cc(C(F)(F)F)c2)cn1 [Nilotinib (AMN-107)] | 104%
Cc1cn(-c2cc(NC(=O)c3ccc(C)c(Nc4nccc(-c5cccnc5)n4)c3)cc(C(F)(F)F)c2)cn1 [Nilotinib hydrochloride] | 116%
Cc1cc(O)cc(C)c1Cl [Chloroxylenol] | 93.1%
Oc1cccc(O)c1 [Resorcinol] | 102%
CS(=O)(=O)c1cccc(C[C@H](NC(=O)c2c(Cl)cc3c(c2Cl)CCN(C(=O)c2ccc4ccoc4c2)C3)C(=O)O)c1 [Lifitegrast] | 91.6%
COC(=O)CCC(=O)CN [Methyl Aminolevulinate Hydrochloride] | 92%
CC(=O)c1c(C)c2cnc(Nc3ccc(N4CCNCC4)cn3)nc2n(C2CCCC2)c1=O | 58.9% and 34.4%
COc1nccnc1NS(=O)(=O)c1ccc(N)cc1 [Sulfalene(SMPZ)] | 94.2%
C#C[C@]1(O)CC[C@H]2[C@@H]3CCC4=CC(=O)CC[C@@H]4[C@H]3C(=C)C[C@@]21CC [Etonogestrel] | 96.8%
NC(=O)c1ccc(I)c([N+](=O)[O-])c1 [Iniparib (BSI-201)] | 93.3%
CC(C)N(CCCCOCC(=O)NS(C)(=O)=O)c1cnc(-c2ccccc2)c(-c2ccccc2)n1 [Selexipag] | 86.4%
O=C(O)c1cc(/N=N/c2ccc(S(=O)(=O)Nc3ccccn3)cc2)ccc1O [Sulfasalazine] | 96.5%
C/C(=C\C(=O)OCCCCCCCCC(=O)O)C[C@@H]1OC[C@H](C[C@@H]2O[C@H]2[C@@H](C)[C@H](C)O)[C@@H](O)[C@H]1O [Mupirocin] | 79%
C/C(=C\C(=O)OCCCCCCCCC(=O)O)C[C@@H]1OC[C@H](C[C@@H]2O[C@H]2[C@@H](C)[C@H](C)O)[C@@H](O)[C@H]1O [Mupirocin calcium] | 82.9%
CN/C(=N\CCSCc1nc[nH]c1C)NC#N [Cimetidine] | 86.6%

Compound | cell viability
N/N=c1\[nH][nH]/c(=N\N)c2ccccc12 [Dihydralazine sulphate] | 73.2%
O=C(O)c1ccccc1O [Salicylic acid] | 110%
O=c1oc2cc(O)ccc2s1 [Tioxolone] | 83.6%
C[C@]12CCC3=C4CCC(=O)C=C4CC[C@H]3[C@@H]1CC[C@@]2(O)CC#N [Dienogest] | 97.6%
CCOc1ccc2nc(S(N)(=O)=O)sc2c1 [Ethoxzolamide] | 83.5%
CCOC(=O)[C@H](CCc1ccccc1)N[C@@H](C)C(=O)N1C(=O)N(C)C[C@H]1C(=O)O [Imidapril HCl] | 93.3%
C[C@@H]1C[C@H]2[C@@H]3CCC4=CC(=O)C=C[C@]4(C)[C@@]3(Cl)[C@@H](O)C[C@]2(C)[C@@]1(OC(=O)c1ccco1)C(=O)CCl [Mometasone furoate] | 84.4%
Cc1ccc(-n2nc(C(C)(C)C)cc2NC(=O)NCc2cc(F)ccc2Oc2ccc3c(cnn3CCO)c2)cc1 [Pexmetinib (ARRY-614)] | 121%
O=C(NC[C@H](O)CO)c1ccncc1Nc1ccc(I)cc1F | 66.6%
CC1(C)S[C@@H]2[C@H](NC(=O)[C@H](N)c3ccccc3)C(=O)N2[C@H]1C(=O)O [Ampicillin Trihydrate] | 96.8%
CC1(C)S[C@@H]2[C@H](NC(=O)[C@H](N)c3ccccc3)C(=O)N2[C@H]1C(=O)O [Ampicillin sodium] | 90.9%
O=c1n(CCCN2CCN(c3cccc(Cl)c3)CC2)nc2ccccn12 [Trazodone HCl] | 92.4%
O=C(O)c1cc(=O)[nH]c(=O)[nH]1 [Orotic acid (6-Carboxyuracil)] | 97.4%
C[C@]12CCC(=O)C=C1[C@@H]1C[C@@H]1[C@H]1[C@@H]3[C@@H]4C[C@@H]4[C@@]4(CCC(=O)O4)[C@@]3(C)CC[C@@H]12 [Drospirenone] | 103%
COc1ccc2cc([C@H](C)C(=O)O)ccc2c1 [Naproxen Sodium] | 101%
O=C(O)c1ccccc1OP(=O)(O)O [Fosfosal] | 96.4%
Cc1ncc([N+](=O)[O-])n1CC(C)O (centres undefined) [Secnidazole] | 96.3%
CC1=C(/C=C/C(C)=C/C=C/C(C)=C/CO)C(C)(C)CCC1 [Vitamin A] | 96%
COc1c(-c2ccc3cc(NS(C)(=O)=O)ccc3c2)cc(-n2ccc(=O)[nH]c2=O)cc1C(C)(C)C [Dasabuvir(ABT-333)] | 91.2%
Cc1[nH]c(=O)c(C#N)cc1-c1ccc2nccn2c1 [Olprinone] | 92.4%
CC(=O)O[C@H]1C(=O)[C@@]2(C)[C@H]([C@H](OC(=O)c3ccccc3)[C@]3(O)C[C@H](OC(=O)[C@H](O)[C@@H](NC(=O)c4ccccc4)c4ccccc4)C(C)=C1C3(C)C)[C@]1(OC(C)=O)CO[C@@H]1C[C@@H]2O [Paclitaxel] | 57.8%
O=C([O-])[C@H](O)[C@@H](O)[C@H](O)[C@H](O)CO.O=C([O-])[C@H](O)[C@@H](O)[C@H](O)[C@H](O)CO.[Ca+2] [Calcium gluconate] | 107%
CCCN(CCC)CCc1cccc2c1CC(=O)N2 [Ropinirole HCl] | 94%

Compound | cell viability
O[C@H]1[C@H](O)[C@@H](O)[C@H](O)[C@@H](O)[C@H]1O [i-Inositol] | 93.5%
COc1cccc2c1C(=O)c1c(O)c3c(c(O)c1C2=O)C[C@@](O)(C(=O)CO)C[C@@H]3O[C@H]1C[C@H](N)[C@@H](O)[C@H](C)O1 [Epirubicin HCl] | 67.6%
CSc1nc2cc(Cl)c(Oc3cccc(Cl)c3Cl)cc2[nH]1 [Triclabendazole] | 91.9%
Cc1ccccc1N1CCN(CCc2nnc3n2CCCC3)CC1 [Dapiprazole Hydrochloride] | 91.7%
O=C(CCNNC(=O)c1ccncc1)NCc1ccccc1 [Nialamide] | 91.6%
CCCCC[C@H](O)/C=C/[C@H]1[C@H](O)CC(=O)[C@@H]1C/C=C\CCCC(=O)O [Prostaglandin E2 (PGE2)] | 88.5%
O=C1[C@@H]2[C@H]3CC[C@H](C3)[C@@H]2C(=O)N1C[C@@H]1CCCC[C@H]1CN1CCN(c2nsc3ccccc23)CC1 [lurasidone] | 87.9%
Cn1cnc2c(F)c(Nc3ccc(Br)cc3F)c(C(=O)NOCCO)cc21 | 66.9%
NC(=O)c1cnccn1 [Pyrazinamide] | 92.2%
CO[C@@H]1[C@H](OC(=O)/C=C/C=C/C=C/C=C/C(=O)O)CC[C@]2(CO2)[C@H]1[C@@]1(C)O[C@@H]1CC=C(C)C [Fumagillin] | 72.8%
C[C@@H](O)[C@H]1C(=O)N2C(C(=O)O)=C(S[C@@H]3CN[C@H](C(=O)N(C)C)C3)[C@H](C)[C@H]12 [Meropenem Trihydrate] | 51.7%
C[C@@H](O)[C@H]1C(=O)N2C(C(=O)O)=C(S[C@@H]3CN[C@H](C(=O)N(C)C)C3)[C@H](C)[C@H]12 [Meropenem] | 111%
Cc1cc(C)cc(OCC2CNC(=O)O2)c1 (centres undefined) [Metaxalone] | 93%
CC(=O)O[C@H]1C[C@@H]2CC[C@@H]3[C@H](CC[C@@]4(C)[C@H]3C[C@H]([N+]3(C)CCCCC3)[C@@H]4OC(C)=O)[C@@]2(C)C[C@@H]1N1CCCCC1 [Vecuronium Bromide] | 98.3%
COc1ccc(NC(=O)c2ccc(C(=N)N(C)C)cc2)c(C(=O)Nc2ccc(Cl)cn2)c1 [Betrixaban maleate] | 85%
COc1ccc(NC(=O)c2ccc(C(=N)N(C)C)cc2)c(C(=O)Nc2ccc(Cl)cn2)c1 [Betrixaban] | 87.1%
CC1(C)O[C@@H]2C[C@H]3[C@@H]4CCC5=CC(=O)CC[C@]5(C)[C@@]4(F)[C@@H](O)C[C@]3(C)[C@]2(C(=O)CCl)O1 [Halcinonide] | 59.1%
C[C@]12C=CC(=O)C=C1CC[C@H]1[C@@H]3C[C@@H](O)[C@](O)(C(=O)CO)[C@@]3(C)C[C@H](O)[C@@]12F [Triamcinolone] | 73.5%
CCN(CC)C(=O)/C(C#N)=C/c1cc(O)c(O)c([N+](=O)[O-])c1 [Entacapone] | 103%
C[C@@H]1O[C@@H](OC[C@H]2O[C@@H](Oc3c(-c4ccc(OCCO)c(OCCO)c4)oc4cc(OCCO)cc(O)c4c3=O)[C@H](O)[C@@H](O)[C@@H]2O)[C@H](O)[C@H](O)[C@H]1O [Troxerutin] | 87.9%
C=C1CCN([C@H](C)[C@](O)(Cn2cncn2)c2ccc(F)cc2F)CC1 [Efinaconazole] | 90%
OC(c1cc(C(F)(F)F)nc2c(C(F)(F)F)cccc12)C1CCCCN1 (centres undefined) [Mefloquine HCl] | 43.2%
CNCCCC12CCC(c3ccccc31)c1ccccc12 [Maprotiline HCl] | 87.5%

3 records drawn at random from the list so far:
Compound | cell viability
CC1(C)S[C@@H]2[C@H](NC(=O)[C@H](N)c3ccccc3)C(=O)N2[C@H]1C(=O)O [Ampicillin sodium] | 90.9%
COc1ccc2cc([C@H](C)C(=O)O)ccc2c1 [Naproxen Sodium] | 101%
Cc1cc(O)cc(C)c1Cl [Chloroxylenol] | 93.1%
